These results are taken from PubChem BioAssay AID248 (DTP/NCI, 2004).

The list does not hold the whole screen: it is rich in T/C values a quarter to a half above the control, in often repeated tests (any T/C) and in doses without a T/C. Further doses and runs are listed elsewhere. T/C: endpoint of the treated group in % of that of the vehicle group. Some entries give survivors of the animals treated and no T/C: the source holds a T/C of zero for them, seemingly a mark for toxic or unscored doses. Some survivor counts are full or nearly so, which does not show that the dose was tolerated: the source hardly ever lists a survival T/C far under the control, and the zero likely stands for such cases as well. Counts of survivors are from the toxicity check (mostly the fifth day) where no day follows; animals may have died later. Schedules are NCI's codes, taken here to give the interval after Q, in days (D) or hours (H), and the number of doses after X. Some schedule codes hold Z or #, which are not explained here. For survival time, the PubChem record calls one and a half times the control and up active, and a quarter to a half above the control has no call in these data; cut-offs in other NCI protocols can differ. Some T/C values are followed by the survivors on the day toxicity was checked, most often the fifth; where none is given, no animal had died by that day. Some entries were tested several times; their values stand side by side, smallest first.

This assay concerns L1210 leukemia ip in BDF1 mice, survival T/C. The assay can be described thus: NCI In Vivo Anticancer Drug Screen. Data for tumor model L1210 Leukemia (intraperitoneal) in B6D2F1 (BDF1) mice. Conditions: T/C endpoint: mean survival time, higher T/C = longer survival.
Setting [1] is: dose: 200.0 mg/kg/injection, schedule: Q01DX001 (ip), vehicle: Klucel (hydroxypropylcellulose) (HPC).
Setting [2] is: dose: 200.0 mg/kg/injection, schedule: Q01DX009 (ip), vehicle: saline.
Setting [3] is: dose: 400.0 mg/kg/injection, schedule: Q01DX001 (ip), vehicle: Klucel (hydroxypropylcellulose) (HPC).
The mark [4] stands for this setting: dose: 400.0 mg/kg/injection, schedule: Q01DX009 (ip), vehicle: saline.
Setting [5] is: dose: 400.0 mg/kg/injection, schedule: Q04DX003 (ip), vehicle: saline.
The mark [6] stands for this setting: dose: 400.0 mg/kg/injection, schedule: Q01DX001 (ip), vehicle: saline.
The mark [7] stands for this setting: dose: 100.0 mg/kg/injection, schedule: Q01DX009 (ip), vehicle: saline with Tween-80.
Setting [8] is: dose: 200.0 mg/kg/injection, schedule: Q01DX009 (ip), vehicle: saline with Tween-80.
[9] abbreviates: dose: 400.0 mg/kg/injection, schedule: Q04DX003 (ip), vehicle: saline with Tween-80.
[10] abbreviates: dose: 100.0 mg/kg/injection, schedule: Q01DX009 (ip), vehicle: Klucel (hydroxypropylcellulose) (HPC).
Where [11] appears, read: dose: 400.0 mg/kg/injection, schedule: Q01DX009 (ip), vehicle: Klucel (hydroxypropylcellulose) (HPC).
Setting [12] is: dose: 400.0 mg/kg/injection, schedule: Q04DX002 (ip), vehicle: saline.

On to `C=C(Br)CNC(C)=O`, for which the survivor count is, setting by setting: (dose: 100.0 mg/kg/injection, schedule: Q01DX001 (ip), vehicle: Klucel (hydroxypropylcellulose) (HPC)) 1 of 6; under setting [1], 0 of 6; under setting [2], 0 of 6; under setting [3], 0 of 6; under setting [4], 0 of 6; under setting [5], 0 of 6.
As for `CCN1/C(=C/c2ccc3ccccc3[n+]2CC)C=Cc2ccccc21`, the survivor count reads like this: (dose: 4.0 mg/kg/injection, schedule: Q01DX001 (ip), vehicle: other) 3 of 6; (dose: 19.0 mg/kg/injection, schedule: Q01DX001 (ip), vehicle: other) 1 of 6; (dose: 38.0 mg/kg/injection, schedule: Q01DX001 (ip), vehicle: other) 0 of 6; (dose: 75.0 mg/kg/injection, schedule: Q01DX001 (ip), vehicle: other) 0 of 6; (dose: 150.0 mg/kg/injection, schedule: Q01DX001 (ip), vehicle: other) 0 of 6; (dose: 300.0 mg/kg/injection, schedule: Q01DX001 (ip), vehicle: other) 0 of 6.
Take `CN1CCN(Cc2c(O)ccc3c2OC(C)(C)C2=C3CCCC2)CC1`: under setting [6], the survivor count was 0 of 6.
`C=C(Br)CN(C)C`: the survivor count was 0 of 6 under setting [7], 0 of 6 under setting [8] and 0 of 6 under setting [9].
On to `CC(=O)Oc1ccc[nH]c1=O`, for which the T/C was 130 % of control under setting [2]; 129 % of control (dose: 400.0 mg/kg/injection, schedule: Q01DX009 (ip), vehicle: carboxymethylcellulose (CMC)); 149 % of control under setting [4]; 138 % of control (dose: 400.0 mg/kg/injection, schedule: Q01DX015 (ip), vehicle: saline); 139 % of control (dose: 500.0 mg/kg/injection, schedule: Q01DX009 (ip), vehicle: saline); 141 and 148 % of control [5 of 6 alive] (dose: 600.0 mg/kg/injection, schedule: Q01DX009 (ip), vehicle: saline). The T/C by setting is: (dose: 800.0 mg/kg/injection, schedule: Q01DX009 (ip), vehicle: saline) 137 % of control; (dose: 800.0 mg/kg/injection, schedule: Q01DX015 (ip), vehicle: saline) 142 % of control. Besides, the survivor count was 2 of 6 (dose: 1000.0 mg/kg/injection, schedule: Q01DX009 (ip), vehicle: saline) and 0 of 6 (dose: 1200.0 mg/kg/injection, schedule: Q01DX009 (ip), vehicle: saline).
Take `COc1cc(C)ccc1C1=CCCC1`: for the setting “dose: 340.0 mg/kg/injection, schedule: Q01DX009 (ip), vehicle: acetone”, the survivor count is recorded as 6 of 6.
Regarding `Cc1ccc(NC(=O)OCCCl)cc1`, under setting [6], the survivor count is given as 0 of 4.
On to `CSc1ccc(NC(=O)Nc2cc(C)c(C)cc2C)cc1`, for which the survivor count (dose: 100.0 mg/kg/injection, schedule: Q01DX009 (ip), vehicle: other) is reported as 6 of 6.
Consider `O=C(NC(=S)Nc1cccc(Cl)c1)c1ccc(Cl)cc1Cl`, for which the survivor count by setting is: under setting [10], 3 of 3; under setting [1], 6 of 6; under setting [3], 6 of 6.
As for `Nc1ccc(N=Nc2ccc(O)cc2)c(N)n1`, under setting [6], the survivor count was 1 of 4.
As for `O=C(CCl)NCCCCCNC(=O)CCl`, under setting [11], the survivor count is 0 of 6.
`CCCCCCN=C(N)c1ccc(NC(=O)c2ccc(C(=O)Nc3ccc(C(N)=NCCCCCC)cc3)cc2)cc1`: the survivor count (dose: 25.0 mg/kg/injection, schedule: Q01DX Z (ip), vehicle: methylcellulose (MC)) was 0 of 6; the survivor count (dose: 50.0 mg/kg/injection, schedule: Q01DX Z (ip), vehicle: methylcellulose (MC)) is 0 of 6; the survivor count (dose: 100.0 mg/kg/injection, schedule: Q01DX Z (ip), vehicle: methylcellulose (MC)) was 0 of 6; the survivor count (dose: 200.0 mg/kg/injection, schedule: Q01DX Z (ip), vehicle: methylcellulose (MC)) is on record as 0 of 6.
Consider `O=S1(=O)CCC2CCCCC2C1` (stereo unspecified), for which the survivor count is, setting by setting: (dose: 100.0 mg/kg/injection, schedule: Q04DX003 (ip), vehicle: saline with Tween-80) 4 of 6; (dose: 200.0 mg/kg/injection, schedule: Q04DX003 (ip), vehicle: saline with Tween-80) 0 of 6; under setting [9], 0 of 6.
For `Cn1c(C=O)cc2ccccc21`, the survivor count under setting [4] is listed as 3 of 3.
As for `OCC#CC#CCO`, the survivor count is, setting by setting: (dose: 200.0 mg/kg/injection, schedule: Q04DX003 (ip), vehicle: saline) 0 of 6; under setting [5], 0 of 6.
Regarding `C=C1CC2(C)C(=O)CCCC2OC1=O` (stereo unspecified), the survivor count reads like this: (dose: 200.0 mg/kg/injection, schedule: Q01DX001 (ip), vehicle: saline with Tween-80) 1 of 3; (dose: 400.0 mg/kg/injection, schedule: Q01DX001 (ip), vehicle: saline with Tween-80) 0 of 3.
For the molecule `O=C(Cc1c(F)c(F)c(F)c(F)c1F)Nc1ccc(-c2nc3ccccc3s2)cc1`, the survivor count under setting [3] is 6 of 6 and the survivor count under setting [11] is recorded as 2 of 3.
For the molecule `CCOC(=O)C12CCC(C1=O)C(C)(O)CC2` (stereo unspecified), the survivor count under setting [9] is on record as 1 of 6.
As to `Cc1cccc(C)c1NC(=O)C[N+](C)(C)N`, the survivor count under setting [12] is listed as 0 of 3.
Consider `O=[N+]([O-])c1ccc(Cn2cnc3c(Cl)ncnc32)cc1`, for which the survivor count reads like this: (dose: 200.0 mg/kg/injection, schedule: Q01DX001 (ip), vehicle: other) 1 of 6; (dose: 400.0 mg/kg/injection, schedule: Q01DX001 (ip), vehicle: other) 0 of 6.
With `COC1C(CO)OC(n2cnc3c(=S)nc(N)[nH]c32)C1O` (stereo unspecified), the T/C is, setting by setting: (dose: 100.0 mg/kg/injection, schedule: Q01DX009 (ip), vehicle: carboxymethylcellulose (CMC)) 142 % of control; (dose: 177.0 mg/kg/injection, schedule: Q01DX001 (ip), vehicle: carboxymethylcellulose (CMC)) 125 % of control; (dose: 200.0 mg/kg/injection, schedule: Q01DX001 (ip), vehicle: carboxymethylcellulose (CMC)) 132 % of control; (dose: 200.0 mg/kg/injection, schedule: Q01DX005 (ip), vehicle: saline) 135 and 142 % of control; (dose: 266.0 mg/kg/injection, schedule: Q01DX001 (ip), vehicle: carboxymethylcellulose (CMC)) 144 % of control; (dose: 600.0 mg/kg/injection, schedule: Q01DX001 (ip), vehicle: carboxymethylcellulose (CMC)) 144 % of control.
With `O=NC1C(Cl)C2CC1C1CCCC21` (stereo unspecified), the survivor count under setting [10] is listed as 6 of 6.
For `CCCCN(CCCC)CN(CCCC)CCCC`, the survivor count under setting [7] is 2 of 6; the survivor count under setting [8] is on record as 0 of 6; the survivor count (dose: 400.0 mg/kg/injection, schedule: Q01DX009 (ip), vehicle: saline with Tween-80) is 0 of 6; the survivor count under setting [12] is 3 of 3.
Regarding `CN1C(C)(C)CC(O)(C(O)(c2ccccc2)c2ccccc2)CC1(C)C`, the survivor count is, setting by setting: (dose: 200.0 mg/kg/injection, schedule: Q04DX003 (ip), vehicle: acetone) 0 of 6; (dose: 400.0 mg/kg/injection, schedule: Q04DX003 (ip), vehicle: acetone) 0 of 6.
Turning to `O=c1ccn2ccccc2n1`, under setting [5], the survivor count is 4 of 6.
